Test results from the supplement of paper PMC10849652.
The other results are listed elsewhere or left out.

By UniProt entry, the sequences of proteins in these tests, tags left out. Where a name states a change or a piece, a line headed by the entry shows the natural chain unless it says otherwise.
UniProt Q6VY07, whole entry, looked up: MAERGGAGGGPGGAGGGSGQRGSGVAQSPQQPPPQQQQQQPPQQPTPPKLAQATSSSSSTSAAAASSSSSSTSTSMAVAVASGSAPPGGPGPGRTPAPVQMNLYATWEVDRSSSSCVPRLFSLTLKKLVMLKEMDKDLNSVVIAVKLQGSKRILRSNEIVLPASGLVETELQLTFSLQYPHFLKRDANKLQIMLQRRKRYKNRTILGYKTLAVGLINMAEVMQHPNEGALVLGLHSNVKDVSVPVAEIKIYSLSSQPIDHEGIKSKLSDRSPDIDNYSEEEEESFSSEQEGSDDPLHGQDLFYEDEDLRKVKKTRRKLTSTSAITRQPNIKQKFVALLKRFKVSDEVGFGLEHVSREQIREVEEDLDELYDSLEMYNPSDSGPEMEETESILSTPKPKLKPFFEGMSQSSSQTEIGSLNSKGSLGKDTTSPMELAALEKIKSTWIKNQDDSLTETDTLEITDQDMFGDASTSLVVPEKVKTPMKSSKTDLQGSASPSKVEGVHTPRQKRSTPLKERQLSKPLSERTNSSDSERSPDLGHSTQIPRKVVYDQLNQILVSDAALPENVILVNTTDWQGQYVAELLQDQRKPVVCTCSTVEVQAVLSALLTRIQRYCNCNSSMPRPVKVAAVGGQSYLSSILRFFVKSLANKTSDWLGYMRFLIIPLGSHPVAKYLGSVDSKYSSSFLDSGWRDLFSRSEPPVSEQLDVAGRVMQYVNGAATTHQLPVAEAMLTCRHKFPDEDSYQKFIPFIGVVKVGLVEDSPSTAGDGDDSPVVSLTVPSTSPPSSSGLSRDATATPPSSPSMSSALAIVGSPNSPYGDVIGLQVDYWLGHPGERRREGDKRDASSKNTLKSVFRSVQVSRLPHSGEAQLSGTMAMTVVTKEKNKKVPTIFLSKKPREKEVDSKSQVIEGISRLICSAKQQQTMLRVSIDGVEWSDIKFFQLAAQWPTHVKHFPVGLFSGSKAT
UniProt O60313: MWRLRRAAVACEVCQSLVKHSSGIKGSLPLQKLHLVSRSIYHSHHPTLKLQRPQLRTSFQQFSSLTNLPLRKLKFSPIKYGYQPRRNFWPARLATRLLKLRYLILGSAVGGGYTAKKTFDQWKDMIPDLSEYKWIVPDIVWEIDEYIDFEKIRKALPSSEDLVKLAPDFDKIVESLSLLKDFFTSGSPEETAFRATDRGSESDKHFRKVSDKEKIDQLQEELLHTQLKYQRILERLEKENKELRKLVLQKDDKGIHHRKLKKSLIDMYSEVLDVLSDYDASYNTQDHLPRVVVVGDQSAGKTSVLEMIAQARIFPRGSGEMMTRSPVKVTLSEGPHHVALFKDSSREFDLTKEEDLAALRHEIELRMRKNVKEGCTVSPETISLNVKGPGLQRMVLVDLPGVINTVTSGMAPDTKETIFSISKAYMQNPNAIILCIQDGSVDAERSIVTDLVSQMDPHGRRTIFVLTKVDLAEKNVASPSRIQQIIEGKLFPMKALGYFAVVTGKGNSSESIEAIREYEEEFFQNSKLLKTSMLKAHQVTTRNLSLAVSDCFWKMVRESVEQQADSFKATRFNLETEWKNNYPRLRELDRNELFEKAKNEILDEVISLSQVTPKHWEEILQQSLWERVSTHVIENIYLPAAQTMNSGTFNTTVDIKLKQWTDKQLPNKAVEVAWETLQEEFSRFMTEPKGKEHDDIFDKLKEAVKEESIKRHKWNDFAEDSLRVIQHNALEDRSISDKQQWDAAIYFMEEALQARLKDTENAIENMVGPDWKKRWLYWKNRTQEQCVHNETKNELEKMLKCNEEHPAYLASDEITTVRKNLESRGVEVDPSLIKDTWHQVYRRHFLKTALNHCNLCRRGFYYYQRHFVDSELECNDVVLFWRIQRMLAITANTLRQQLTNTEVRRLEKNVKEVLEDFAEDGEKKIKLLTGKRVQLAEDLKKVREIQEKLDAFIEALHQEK
UniProt Q96CV9, whole entry, looked up: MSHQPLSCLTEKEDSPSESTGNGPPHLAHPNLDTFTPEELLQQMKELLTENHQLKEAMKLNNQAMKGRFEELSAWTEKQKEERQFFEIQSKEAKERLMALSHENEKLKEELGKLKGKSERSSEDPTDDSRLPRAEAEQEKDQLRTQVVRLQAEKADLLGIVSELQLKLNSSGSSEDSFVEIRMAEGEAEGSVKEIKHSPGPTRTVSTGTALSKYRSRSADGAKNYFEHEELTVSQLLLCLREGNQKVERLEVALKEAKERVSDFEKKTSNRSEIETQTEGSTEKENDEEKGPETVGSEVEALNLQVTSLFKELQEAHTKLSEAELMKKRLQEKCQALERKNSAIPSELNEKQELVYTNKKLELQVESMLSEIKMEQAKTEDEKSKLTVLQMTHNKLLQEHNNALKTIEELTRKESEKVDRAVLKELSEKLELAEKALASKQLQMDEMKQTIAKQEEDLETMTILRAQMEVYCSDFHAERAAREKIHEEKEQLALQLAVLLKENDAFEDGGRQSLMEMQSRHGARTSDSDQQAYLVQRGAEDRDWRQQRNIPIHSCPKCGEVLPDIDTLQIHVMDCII
UniProt Q13416: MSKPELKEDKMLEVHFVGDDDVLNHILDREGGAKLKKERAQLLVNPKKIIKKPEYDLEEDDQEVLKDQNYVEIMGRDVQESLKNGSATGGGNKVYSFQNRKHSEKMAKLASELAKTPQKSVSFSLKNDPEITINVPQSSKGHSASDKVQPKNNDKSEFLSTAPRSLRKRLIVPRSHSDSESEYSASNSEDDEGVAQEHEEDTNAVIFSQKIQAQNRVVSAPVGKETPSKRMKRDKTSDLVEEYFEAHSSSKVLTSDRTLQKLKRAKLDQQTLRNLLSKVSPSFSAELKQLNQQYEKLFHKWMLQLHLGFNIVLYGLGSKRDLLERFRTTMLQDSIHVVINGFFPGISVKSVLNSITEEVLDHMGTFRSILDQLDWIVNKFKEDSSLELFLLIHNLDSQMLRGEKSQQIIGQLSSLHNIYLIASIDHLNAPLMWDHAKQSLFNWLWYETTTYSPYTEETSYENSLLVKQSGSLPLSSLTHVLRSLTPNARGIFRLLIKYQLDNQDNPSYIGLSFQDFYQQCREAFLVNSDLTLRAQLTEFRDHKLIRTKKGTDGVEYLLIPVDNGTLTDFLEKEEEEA
UniProt P61970, whole entry, looked up: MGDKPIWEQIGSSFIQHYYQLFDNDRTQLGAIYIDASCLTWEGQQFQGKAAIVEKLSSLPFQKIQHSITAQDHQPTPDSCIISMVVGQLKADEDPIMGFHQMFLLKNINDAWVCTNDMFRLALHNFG
UniProt Q9H6K4: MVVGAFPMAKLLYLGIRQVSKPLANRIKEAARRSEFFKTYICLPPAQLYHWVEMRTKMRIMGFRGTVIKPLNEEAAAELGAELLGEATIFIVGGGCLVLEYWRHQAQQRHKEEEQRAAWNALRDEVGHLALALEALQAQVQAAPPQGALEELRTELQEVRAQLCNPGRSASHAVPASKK
UniProt Q9BXB4: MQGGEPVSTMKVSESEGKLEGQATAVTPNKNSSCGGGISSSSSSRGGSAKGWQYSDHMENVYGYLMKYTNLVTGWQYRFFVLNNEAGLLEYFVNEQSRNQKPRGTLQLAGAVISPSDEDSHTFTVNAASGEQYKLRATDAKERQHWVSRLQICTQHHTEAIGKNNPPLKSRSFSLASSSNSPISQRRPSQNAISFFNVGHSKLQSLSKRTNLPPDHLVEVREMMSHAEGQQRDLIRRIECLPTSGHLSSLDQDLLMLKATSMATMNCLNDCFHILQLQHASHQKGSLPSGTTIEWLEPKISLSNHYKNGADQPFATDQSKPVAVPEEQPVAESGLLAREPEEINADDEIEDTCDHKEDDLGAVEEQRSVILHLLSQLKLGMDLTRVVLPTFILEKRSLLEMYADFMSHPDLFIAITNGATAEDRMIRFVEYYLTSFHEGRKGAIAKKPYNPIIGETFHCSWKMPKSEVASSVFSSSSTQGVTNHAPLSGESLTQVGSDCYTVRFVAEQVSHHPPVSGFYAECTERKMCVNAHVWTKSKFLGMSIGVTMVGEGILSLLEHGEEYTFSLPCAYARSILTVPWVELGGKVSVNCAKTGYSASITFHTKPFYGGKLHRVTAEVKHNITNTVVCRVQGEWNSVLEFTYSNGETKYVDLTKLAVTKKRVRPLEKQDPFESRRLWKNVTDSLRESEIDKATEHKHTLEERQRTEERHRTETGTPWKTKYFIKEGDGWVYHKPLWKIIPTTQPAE
UniProt Q7Z3B4: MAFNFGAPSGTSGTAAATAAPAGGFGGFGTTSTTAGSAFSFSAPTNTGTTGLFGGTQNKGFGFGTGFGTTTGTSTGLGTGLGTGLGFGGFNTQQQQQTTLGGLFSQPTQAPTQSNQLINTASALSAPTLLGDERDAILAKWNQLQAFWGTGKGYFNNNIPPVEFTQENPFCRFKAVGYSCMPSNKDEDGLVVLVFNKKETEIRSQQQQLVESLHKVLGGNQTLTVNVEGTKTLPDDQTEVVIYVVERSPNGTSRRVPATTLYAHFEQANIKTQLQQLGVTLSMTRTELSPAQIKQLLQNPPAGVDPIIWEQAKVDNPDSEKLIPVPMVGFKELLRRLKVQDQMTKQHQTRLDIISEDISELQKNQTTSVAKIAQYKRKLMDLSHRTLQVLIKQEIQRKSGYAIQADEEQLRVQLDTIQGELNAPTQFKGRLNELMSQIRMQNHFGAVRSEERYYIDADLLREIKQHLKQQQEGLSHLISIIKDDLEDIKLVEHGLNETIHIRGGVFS
UniProt Q02218: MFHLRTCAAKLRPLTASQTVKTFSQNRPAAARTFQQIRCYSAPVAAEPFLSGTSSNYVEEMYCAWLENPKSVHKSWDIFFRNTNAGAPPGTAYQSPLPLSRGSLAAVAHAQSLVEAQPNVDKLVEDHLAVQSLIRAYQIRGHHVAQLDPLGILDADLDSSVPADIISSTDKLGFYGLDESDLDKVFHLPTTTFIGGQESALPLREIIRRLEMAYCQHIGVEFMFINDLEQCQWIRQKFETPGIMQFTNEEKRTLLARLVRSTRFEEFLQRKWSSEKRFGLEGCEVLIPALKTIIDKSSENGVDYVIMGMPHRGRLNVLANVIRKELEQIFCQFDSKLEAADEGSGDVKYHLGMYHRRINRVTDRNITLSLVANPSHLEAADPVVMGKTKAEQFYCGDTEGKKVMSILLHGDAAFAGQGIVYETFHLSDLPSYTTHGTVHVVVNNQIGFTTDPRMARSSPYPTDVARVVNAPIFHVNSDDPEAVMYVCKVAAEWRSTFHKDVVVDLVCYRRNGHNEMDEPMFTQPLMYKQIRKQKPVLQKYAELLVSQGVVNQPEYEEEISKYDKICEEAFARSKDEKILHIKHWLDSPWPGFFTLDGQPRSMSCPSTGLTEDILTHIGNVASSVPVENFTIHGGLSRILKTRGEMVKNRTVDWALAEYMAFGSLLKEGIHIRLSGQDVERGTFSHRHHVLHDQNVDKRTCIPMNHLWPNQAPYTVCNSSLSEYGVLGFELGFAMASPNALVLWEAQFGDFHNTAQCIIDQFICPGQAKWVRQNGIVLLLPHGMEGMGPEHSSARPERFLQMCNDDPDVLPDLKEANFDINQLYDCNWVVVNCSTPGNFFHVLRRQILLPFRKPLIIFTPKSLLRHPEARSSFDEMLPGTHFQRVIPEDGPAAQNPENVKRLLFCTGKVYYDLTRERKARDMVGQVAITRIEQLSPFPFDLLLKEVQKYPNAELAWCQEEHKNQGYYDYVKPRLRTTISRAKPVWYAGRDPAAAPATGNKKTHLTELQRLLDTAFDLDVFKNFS
UniProt Q9UQ80: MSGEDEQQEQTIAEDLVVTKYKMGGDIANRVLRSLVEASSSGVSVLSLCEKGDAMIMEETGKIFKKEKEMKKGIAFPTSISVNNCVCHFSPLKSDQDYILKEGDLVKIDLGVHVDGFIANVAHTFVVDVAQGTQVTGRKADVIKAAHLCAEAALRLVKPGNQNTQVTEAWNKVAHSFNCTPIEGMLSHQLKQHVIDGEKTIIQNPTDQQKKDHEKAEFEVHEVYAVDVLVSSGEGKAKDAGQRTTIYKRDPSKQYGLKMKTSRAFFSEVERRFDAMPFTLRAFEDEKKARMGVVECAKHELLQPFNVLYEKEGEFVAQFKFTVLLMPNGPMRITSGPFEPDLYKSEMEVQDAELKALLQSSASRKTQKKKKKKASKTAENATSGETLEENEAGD
UniProt Q9NRP0: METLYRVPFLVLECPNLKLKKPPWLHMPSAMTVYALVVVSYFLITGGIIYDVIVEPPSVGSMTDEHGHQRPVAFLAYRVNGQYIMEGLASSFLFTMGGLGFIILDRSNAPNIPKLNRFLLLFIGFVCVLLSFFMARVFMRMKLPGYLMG
UniProt Q9BRP4: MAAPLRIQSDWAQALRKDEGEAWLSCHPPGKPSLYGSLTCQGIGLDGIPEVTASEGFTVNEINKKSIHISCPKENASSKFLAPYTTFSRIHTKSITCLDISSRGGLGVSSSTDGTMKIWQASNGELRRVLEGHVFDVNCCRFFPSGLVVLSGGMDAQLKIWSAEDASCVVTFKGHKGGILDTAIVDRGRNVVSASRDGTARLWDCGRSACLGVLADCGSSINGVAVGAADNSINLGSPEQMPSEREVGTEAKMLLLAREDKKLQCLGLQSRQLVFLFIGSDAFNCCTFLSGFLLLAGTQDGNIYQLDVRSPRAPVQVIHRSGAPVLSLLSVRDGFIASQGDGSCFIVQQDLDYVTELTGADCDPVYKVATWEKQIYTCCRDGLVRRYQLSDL

How the values were obtained:
Experiment in all cases: log2 fold change, soluble protein after heating vs DMSO (PISA); higher = thermal stabilisation; K562 lysate, 10 uM; active = over 0.2 and 3.5 SD of the protein, either way, in both replicates (recomputed)
erlotinib = compound: C#Cc1cccc(Nc2ncnc3cc(OCCOC)c(OCCOC)cc23)c1 [erlotinib]
Method in brief: (§1)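 The values are log-two fold changes in thermal stability compared with solvent controls and come from duplicates. They were obtained by TMTpro 16plex LC-MS/MS, with channel sums equalised, on the supernatant after 21,000xg for 90 min. That supernatant came from crude K562 extract at 1 mg/mL protein treated with 10 μM compound for 30 min, heated for 3 min across 48°C-58°C, pooled and brought to 0.5% NP-40 at 4°C.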

[1] = compound: C/C(=N\NC(=O)C1=CC(=CC=C1)S(=O)(=O)N2CCOCC2)/C3=C(C=CC(=C3)Cl)O
Method in brief: as §1

[2] = compound: C1=CC(=CC=C1C2=NC3=C(N2)C=C(C=C3)C(=O)N)OC4=CC=C(C=C4)Cl
Method in brief: as §1

[3] = compound: C1=CC2=C(C=CC(=C2)/C=C\3/C(=O)NC(=NCC4=CC=CS4)S3)N=C1
Method in brief: as §1

[4] = compound: C1=CC2=NC=CN=C2C=C1/C=C/3\C(=O)NC(=O)S3
Method in brief: as §1

[5] = compound: C1=CC=C(C=C1)C2=NC(=C(N2)C3=CC=NC=C3)C4=CC(=C(C=C4)Cl)O
Method in brief: as §1

[6] = compound: C1=CC=C2C(=C1)C3=NNC4=CC=CC(=C43)C2=O
Method in brief: as §1

[7] = compound: C1CCN(C1)C(=O)NC2=CC=CC(=C2)NC3=NC=C(C(=N3)NCCC4=CN=CN4)Br
Method in brief: as §1

[8] = compound: C1CN(CCC1(CC2=CC=C(C=C2)Cl)N)C3=NC=NC4=C3C=CN4
Method in brief: as §1

IRAK-1-4 Inhibitor I = compound: C1COCCN1CCN2C3=CC=CC=C3N=C2NC(=O)C4=CC(=CC=C4)[N+](=O)[O-] [IRAK-1-4 Inhibitor I]
Method in brief: as §1

Measured: log2 fold change

PACS1 (UniProt Q6VY07)
inactive: erlotinib 0.017 | [1] 0.006 | [2] 0.022 | [3] -0.006 | [4] -0.002 | [5] -0.027 | [6] -0.029 | [7] 0.009 | [8] -0.003 | IRAK-1-4 Inhibitor I -0.006

OGT (UniProt O15294)
inactive: erlotinib 0.021 | [1] 0.053 | [2] 0.01 | [3] -0.008 | [4] 0.008 | [5] 0.024 | [6] -0.021 | [7] -0.006 | [8] 0.02 | IRAK-1-4 Inhibitor I -0.017

OPA1 isoform 2 (UniProt O60313)
inactive: erlotinib 0.003 | [1] 0.03 | [2] -0.078 | [3] 0.024 | [4] 0.01 | [5] -0.022 | [6] -0.026 | [7] -0.015 | [8] 0.021 | IRAK-1-4 Inhibitor I 0.003

PACC1 (UniProt Q9H813)
inactive: erlotinib -0.139 | [1] 0.04 | [2] 0.012 | [3] 0.019 | [4] -0.253 | [5] 0.047 | [6] 0.054 | [7] -0.132 | [8] 0.002 | IRAK-1-4 Inhibitor I 0.124

OPTN (UniProt Q96CV9)
inactive: erlotinib -0.04 | [1] -0.004 | [2] 0.025 | [3] 0.007 | [4] -0.049 | [5] 0.037 | [6] 0.043 | [7] 0.04 | [8] 0.004 | IRAK-1-4 Inhibitor I -0.011

ORC2 (UniProt Q13416)
inactive: erlotinib -0.004 | [1] -0.006 | [2] -0.006 | [3] 0.009 | [4] 0.015 | [5] 0.006 | [6] -0.022 | [7] 0 | [8] -0.024 | IRAK-1-4 Inhibitor I -0.034

PABPC4 isoform 3 (UniProt Q13310)
inactive: erlotinib -0.007 | [1] -0.032 | [2] -0.022 | [3] 0.005 | [4] -0.01 | [5] -0.003 | [6] 0.024 | [7] -0.014 | [8] 0.001 | IRAK-1-4 Inhibitor I -0.025

PAK1IP1 (UniProt Q9NWT1)
inactive: erlotinib 0.006 | [1] -0.021 | [2] -0.01 | [3] 0.042 | [4] 0.006 | [5] 0.014 | [6] 0.044 | [7] 0.029 | [8] -0.012 | IRAK-1-4 Inhibitor I 0.001

PAFAH1B3 (UniProt Q15102)
inactive: erlotinib 0.037 | [1] 0.032 | [2] -0.017 | [3] -0.017 | [4] 0.022 | [5] -0.009 | [6] 0.005 | [7] 0.025 | [8] 0.027 | IRAK-1-4 Inhibitor I 0.005

NUTF2 (UniProt P61970)
inactive: erlotinib 0.022 | [1] 0.068 | [2] -0.06 | [3] -0.023 | [4] -0.051 | [5] -0.02 | [6] 0.09 | [7] 0.028 | [8] 0.011 | IRAK-1-4 Inhibitor I 0.041

OXR1 (UniProt Q8N573)
inactive: erlotinib -0.025 | [1] 0.048 | [2] 0.019 | [3] 0 | [4] -0.029 | [5] -0.018 | [6] 0.057 | [7] -0.084 | [8] -0.009 | IRAK-1-4 Inhibitor I -0.001

OPA3 (UniProt Q9H6K4)
inactive: erlotinib 0.007 | [1] -0.025 | [2] -0.186 | [3] 0.074 | [4] -0.035 | [5] -0.04 | [6] -0.106 | [7] -0.042 | [8] 0.144 | IRAK-1-4 Inhibitor I 0.075

ORC5 (UniProt O43913)
inactive: erlotinib 0.014 | [1] 0.021 | [2] -0.017 | [3] 0.003 | [4] 0.045 | [5] 0.029 | [6] -0.016 | [7] -0.085 | [8] -0.061 | IRAK-1-4 Inhibitor I -0.068

Quoted at random: two entries already listed, in no set order.
ORC2 (UniProt Q13416)
inactive: erlotinib -0.004 | [1] -0.006 | [2] -0.006 | [3] 0.009 | [4] 0.015 | [5] 0.006 | [6] -0.022 | [7] 0 | [8] -0.024 | IRAK-1-4 Inhibitor I -0.034

NUTF2 (UniProt P61970)
inactive: erlotinib 0.022 | [1] 0.068 | [2] -0.06 | [3] -0.023 | [4] -0.051 | [5] -0.02 | [6] 0.09 | [7] 0.028 | [8] 0.011 | IRAK-1-4 Inhibitor I 0.041

The list goes on:

OSBPL11 (UniProt Q9BXB4)
inactive: erlotinib -0.001 | [1] 0.005 | [2] -0.019 | [3] -0.119 | [4] 0.026 | [5] -0.05 | [6] -0.062 | [7] -0.02 | [8] 0.077 | IRAK-1-4 Inhibitor I 0.004

OMA1 (UniProt Q96E52)
inactive: erlotinib -0.029 | [1] -0.002 | [2] -0.07 | [3] -0.007 | [4] 0.036 | [5] 0.005 | [6] 0.008 | [7] 0.021 | [8] -0.025 | IRAK-1-4 Inhibitor I 0.028

PAF1 (UniProt Q8N7H5)
inactive: erlotinib 0.022 | [1] 0.021 | [2] 0 | [3] 0.027 | [4] -0.03 | [5] 0.018 | [6] -0.011 | [7] -0.017 | [8] 0 | IRAK-1-4 Inhibitor I -0.012

OGA (UniProt O60502)
inactive: erlotinib 0 | [1] -0.011 | [2] 0.007 | [3] -0.023 | [4] -0.001 | [5] -0.019 | [6] 0.019 | [7] 0.009 | [8] 0.012 | IRAK-1-4 Inhibitor I -0.01

NUP54 (UniProt Q7Z3B4)
inactive: erlotinib -0.01 | [1] -0.027 | [2] 0.033 | [3] 0.027 | [4] -0.015 | [5] -0.059 | [6] -0.01 | [7] -0.026 | [8] -0.01 | IRAK-1-4 Inhibitor I -0.026

OGDH (UniProt Q02218)
inactive: erlotinib -0.003 | [1] 0.037 | [2] 0.03 | [3] 0.036 | [4] -0.008 | [5] 0.002 | [6] 0.006 | [7] -0.027 | [8] 0.022 | IRAK-1-4 Inhibitor I 0.01

PARK7 (UniProt Q99497)
inactive: erlotinib 0.014 | [1] -0.046 | [2] 0.014 | [3] -0.04 | [4] 0.003 | [5] 0.014 | [6] 0.006 | [7] 0.042 | [8] 0.044 | IRAK-1-4 Inhibitor I 0.009

PAK2 (UniProt Q13177)
inactive: erlotinib -0.029 | [1] -0.009 | [2] -0.016 | [3] -0.004 | [4] -0.016 | [5] 0.002 | [6] 0.034 | [7] -0.01 | [8] -0.005 | IRAK-1-4 Inhibitor I -0.021

NUP160 (UniProt Q12769)
inactive: erlotinib 0.038 | [1] 0.041 | [2] -0.033 | [3] -0.006 | [4] 0.038 | [5] -0.012 | [6] -0.075 | [7] -0.029 | [8] 0.015 | IRAK-1-4 Inhibitor I -0.013

OSBPL2 (UniProt Q9H1P3)
inactive: erlotinib 0.049 | [1] 0.057 | [2] 0.002 | [3] 0 | [4] -0.052 | [5] 0.014 | [6] -0.042 | [7] -0.013 | [8] 0 | IRAK-1-4 Inhibitor I -0.014

PAN2 isoform 2 (UniProt Q504Q3)
inactive: erlotinib 0 | [1] -0.007 | [2] -0.015 | [3] -0.005 | [4] 0.052 | [5] 0.03 | [6] 0 | [7] -0.017 | [8] -0.031 | IRAK-1-4 Inhibitor I 0.006

OXSR1 (UniProt O95747)
inactive: erlotinib 0.014 | [1] 0.055 | [2] -0.005 | [3] 0.016 | [4] 0.01 | [5] -0.016 | [6] -0.054 | [7] -0.017 | [8] 0.034 | IRAK-1-4 Inhibitor I 0

PA2G4 (UniProt Q9UQ80)
inactive: erlotinib 0.002 | [1] 0.034 | [2] 0.002 | [3] 0.002 | [4] -0.008 | [5] 0.003 | [6] -0.015 | [7] 0.008 | [8] -0.017 | IRAK-1-4 Inhibitor I -0.015

OSTC isoform 2 (UniProt Q9NRP0)
inactive: erlotinib 0.037 | [1] 0.03 | [2] -0.073 | [3] -0.027 | [4] 0.083 | [5] -0.066 | [6] -0.081 | [7] -0.045 | [8] 0.035 | IRAK-1-4 Inhibitor I 0.008

OBSL1 (UniProt O75147)
inactive: erlotinib -0.007 | [1] -0.1 | [2] -0.004 | [3] 0.03 | [4] -0.09 | [5] 0.032 | [6] 0.013 | [7] -0.005 | [8] 0.046 | IRAK-1-4 Inhibitor I -0.037

PAAF1 (UniProt Q9BRP4)
inactive: erlotinib -0.008 | [1] 0.031 | [2] 0.012 | [3] 0.007 | [4] 0.014 | [5] -0.014 | [6] -0.004 | [7] 0.018 | [8] 0.018 | IRAK-1-4 Inhibitor I -0.003
